Laboratory results as given in patent US20230416345A1, “NEW TYPE II COLLAGEN BINDING PROTEINS” (Navigo Proteins GmbH, priority 2020, published 2023).
Results are given in words; binding and its absence hold for the method and conditions named. Binding calls can cover weak binding; strength is not graded here.

Assays:
[1] = target: porcine collagen type II (porcine); assay: Immunohistochemistry on pig eye sections; target in the tissue taken as type II collagen
[2] = target: rabbit collagen type II (rabbit); assay: ELISA, coated collagen, anti-StrepTag detection
[3] = target: porcine collagen type II (porcine); assay: ELISA, coated collagen, anti-StrepTag detection

| Binder | binding [1] | binding [2] | binding [3] |
| --- | --- | --- | --- |
| CID 212001 (SEQ ID NO: 41), tetramer of SEQ ID NO: 2 (designed binder, not shown: small tags and cut ends) IAAKFDEAQSAADSEILHLPNLTEQQRHYFRRWLSDDPSVSTHILTQAQHLNDDQAPKIAAKFDEAQSAADSEILHLPNLTEQQRHYFRRWLSDDPSVSTHILTQAQHLNDDQAPKIAAKFDEAQSAADSEILHLPNLTEQQRHYFRRWLSDDPSVSTHILTQAQHLNDDQAPKIAAKFDEAQSAADSEILHLPNLTEQQRHYFRRWLSDDPSVSTHILTQAQHLNDDQAPKSAWSHPQFEK | binds | binds | binds |
| CID 212000 (SEQ ID NO: 39), dimer of SEQ ID NO: 2 with linker between the monomers (designed binder, not shown: small tags and cut ends) IAAKFDEAQSAADSEILHLPNLTEQQRHYFRRWLSDDPSVSTHILTQAQHLNDDQAPKGGGGSGGGGSGGGGSGGGGSIAAKFDEAQSAADSEILHLPNLTEQQRHYFRRWLSDDPSVSTHILTQAQHLNDDQAPKSAWSHPQFEK | binds | – | – |
| CID 211999 (SEQ ID NO: 38), dimer of SEQ ID NO: 2 (directly joint monomers) (designed binder, not shown: small tags and cut ends) IAAKFDEAQSAADSEILHLPNLTEQQRHYFRRWLSDDPSVSTHILTQAQHLNDDQAPKIAAKFDEAQSAADSEILHLPNLTEQQRHYFRRWLSDDPSVSTHILTQAQHLNDDQAPKSAWSHPQFEK | binds | – | – |
